Reference: PubChem BioAssay AID504467 (National Center for Advancing Translational Sciences (NCATS), 2011)
Screen size: about 330,000 compounds; about 7,700 (2.3%) were called active. Inconclusive means that the source gave no clear call. Such entries were picked first, then a sample of the others. Calls come from the whole dose curve; as a rule, active = well fitted inhibition curve with a large enough effect; inconclusive = small, poorly fitted or top-dose-only effect, or effect the other way; inactive = flat fitted curve, though single readings scatter. A potency beside an inconclusive call is a rough fit, not a confirmed value.

Assay: qHTS screen for small molecules that inhibit ELG1-dependent DNA repair in human embryonic kidney (HEK293T) cells expressing luciferase-tagged ELG1; note: nearly all actives have a fitted effect of over 55% in size
Settings: HEK293T ELG1-luciferase reporter, luminescence, 16 h, DNA damage induced by 5-fluorouridine; activity change, negative = inhibition: at 46.1 µM (top of the series)
In short: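 HEK293T cells expressing luciferase-tagged ELG1 (2,000/well) received 5-Fluorouridine plus compound or DMSO for 16 hr at 37 °C. Luciferase was read by ONE-Glo luminescence after 30 min at room temperature.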
% is set by controls: 0 for no effect and ±100 for the full control effect; potency is the fitted concentration of half-maximal effect.

Row | SMILES | Potency | activity change, negative = inhibition
1 | O=C(Nc1ccc(Cl)cc1)OCc1cncs1 | inconclusive: 23.1 µM [activator, partial curve] | 
2 | CN(C)/C=C1\NC(=S)N(c2ccccc2)C1=O |  | inactive: -4.95%
3 | C/C(=N\Nc1ncnc2sc(C)c(C)c12)c1ccccn1 | inconclusive: 5.8 µM [activator, full curve, poor fit] | 
4 | CCOC(=O)C1CCN(C(=O)C(=O)Nc2ccc3nc4n(c(=O)c3c2)CCCCC4)CC1 |  | inactive: 11.7%
5 | C[C@H](NC(=O)c1nc[nH]c1C(=O)NC(c1ccccc1)c1ccccc1)C(=O)OC(C)(C)C |  | inactive: 0%
6 | COc1ccc(-c2coc3cc(OC4OC(CO)C(O)C(O)C4O)cc(O)c3c2=O)cc1 (stereo not drawn) | inconclusive: 4.61 µM [activator, full curve] | 
7 | Nc1nc(Cl)cc(N2CCC(c3cc(-c4ccc(Cl)cc4)n[nH]3)CC2)n1 | inconclusive: 7.94 µM [inhibitor, partial curve, poor fit] | 
8 | Cc1noc(/C=C/N(C)C)c1S(=O)(=O)N1CCN(c2ccccc2)CC1 | inconclusive: 29.1 µM [inhibitor, single point] | 
9 | CCCCCCSc1ccc([C@@H]2[C@@H]3C(=O)N(CC)C(=O)[C@@H]3[C@]3(C(=O)OC)CCCCN23)cc1 |  | inactive: -6.31%
10 | CCCOC(=O)c1ccc(NC(=O)CC(C)(C)C)cc1 | inconclusive: 23.1 µM [activator, partial curve] | 
11 | CCSc1nnc(-c2ccc(OC)cc2)o1 | inconclusive: 8.2 µM [activator, partial curve] | 
12 | O=C(NCC1CC1)Nc1ccccc1F | inconclusive: 13 µM [activator, partial curve, poor fit] | 
13 | Cc1cc2n(n1)C(c1ccccc1)CC(c1ccc(Br)cc1)=N2 (stereo not drawn) | inconclusive: 23.1 µM [activator, partial curve] | 
14 | COc1ccc(NC(=O)c2ccccc2O)c(OC)c1 | inconclusive: 29.1 µM [activator, single point] | 
15 | Cc1noc(NS(=O)(=O)c2ccc(NC(=O)c3oc4ccc(F)cc4c3C)cc2)c1C | inconclusive: 29.1 µM [activator, partial curve, poor fit] | 
16 | COc1cccc(-c2csc(N3CCN(C(=S)Nc4cccc(C)c4)CC3)n2)c1 | inconclusive: 32.6 µM [inhibitor, partial curve, poor fit] | 
17 | C=CCNC(=O)C(C#N)c1nc2ccccc2nc1N1CCCCCC1 (stereo not drawn) | inconclusive: 29.1 µM [inhibitor, single point] | 
18 | O=C1CCCC/C1=C/Nc1cccc(C(F)(F)F)c1 | inconclusive: 14.6 µM [activator, partial curve] | 

Record cards (already shown):
Cc1cc2n(n1)C(c1ccccc1)CC(c1ccc(Br)cc1)=N2 (stereo not drawn) in the list: Potency: inconclusive: 23.1 µM [activator, partial curve]
O=C(NCC1CC1)Nc1ccccc1F in the list: Potency: inconclusive: 13 µM [activator, partial curve, poor fit]
